About 45 (2%) of roughly 3,000 compounds showed an effect of 50% or more. Some of the results follow.
These molecules were tested on MOLM1 and UCSD/AML1 (averaged) (assay: cell viability relative to DMSO control (POC); higher = less growth inhibition). Settings: 1 µM; 72 h.
Procedure: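 Primary viability screen in the 3q26 EVI1-high AML cell lines MOLM1 and UCSD/AML1, compounds at 1 uM for 72 h. ATP CellTiter-Glo read-out given as percent viable over DMSO control (POC), averaged over duplicates. This mapping covers the TimTec NDL-3000 natural derivative library, whose compounds are identified by TimTec catalogue codes (ST...).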

SMILES	cell viability [%]
COc1cc(OC)cc(C(=O)Nc2ccccc2C(=O)N2CCCC2)c1	100
Cc1c(-c2ccc(O)cc2)c(=O)oc2c(Br)cc(Cl)cc12	89.8
COc1cc(/C=C2/C(=O)N(c3nn[nH]n3)N=C2C)ccc1O	102
COc1ccc(S(=O)(=O)NCCc2c(C)[nH]c3ccccc23)cc1	99.9
CCN(CC)CCCNc1nc(-c2ccc(Cl)cc2)nc2ccccc12	64.2
CC12CCC(=O)N1C(C(=O)O)CS2 (centres undefined)	101
COc1ccc(/C(O)=C2/C(=O)C(=O)NC2c2ccc(O)c(OC)c2)cc1 (centres undefined)	97.9
Cc1c(C(=O)O)[nH]c(=O)[nH]c1=O	98.4
Cc1ccc(NC(=O)CSc2nc3c(=O)[nH]cnc3n2C)cc1	104
O=C(CNC(=O)c1ccccc1)N[C@@H](Cc1ccccc1)C(=O)O	100
CCOC(=O)c1sc(NC(=O)c2cc(OC)cc(OC)c2)c(C#N)c1C	98.5
CCCCCC[n+]1ccccc1/C=C/c1ccc2c(c1)OCO2	52.6
C=C(C)C1CCC2(COC(=O)CCC(=O)O)CCC3(C)C(CCC4C5(C)CCC(OC(=O)CCC(=O)O)C(C)(C)C5CCC43C)C12 (centres undefined)	97.5
CCCNC(=O)c1nn(CC)cc1NC(=O)c1ccc2c(c1)OCCO2	93
COC(=O)C1=C(N)Oc2c(oc(CO)cc2=O)C1c1cccc(Cl)c1Cl (centres undefined)	105
CC1(C)OC2OC(CO)C3OC(C)(C)OC3C2O1 (centres undefined)	101
CC(/C=C\c1ccc2c(c1)OCO2)=N/NC(=O)c1cncc(Br)c1	107
Cc1oc2ccc(O)cc2c1C(=O)O	105
COc1ccc(C(=O)CCN(C)C)cc1OC	59.8
COc1ccc(C(=O)Nc2cccc(C(=O)OCC(=O)c3ccc(C)cc3)c2)cc1OC	105
COc1ccc(/C=C/C(=O)Nc2ccc(OC)c(OC)c2)cc1OC	91.3
CCOc1ccc(-c2cc(-c3cc(OC)c(OC)c(OC)c3)[nH]c(=O)c2C#N)cc1	99.9
Cc1[nH]c2ccc(F)cc2c1CCNC(=O)c1cc([N+](=O)[O-])cc([N+](=O)[O-])c1	102
N#CC1=C(N)Oc2cc(O)ccc2C1c1cccc(C(F)(F)F)c1 (centres undefined)	22.1
COc1cccc(CSc2nc3c(=O)[nH]cnc3n2-c2ccc(C)cc2)c1	93.4
COc1ccc(NC(=O)CSc2nc3c(=O)[nH]cnc3n2C)cc1Cl	104

SMILES	cell viability [%]
COC(=O)c1ccc2c(c1)C(=O)/C(=C\c1cc(OC)c(OC)c(OC)c1)O2	96.4
CC(C)(C)c1ccc(-c2nc(Nc3ccc(C(=O)O)cc3)c3ccccc3n2)cc1	91.5
CCOc1cc(C2C(C(=O)OCCOC)=C(C)NC3=C2C(=O)CC(c2ccccc2)C3)cc(Br)c1O (centres undefined)	92.4
Cc1cc(C)c(C(=O)O)c(N)n1	97.4
O=C(c1cccc(S(=O)(=O)N2CCCCCC2)c1)N1c2ccccc2Sc2ccccc21	82.2
COc1ccc2c(c1OC)C(=O)OC2C(C(C)=O)C(C)=O (centres undefined)	104
COc1ccc(C(=O)CSc2cccc3cccnc23)cc1OC	104
COc1ccc(C2C3CCCCC3(O)CCN2C(=O)c2cccc(F)c2)c(OC)c1 (centres undefined)	91.1
O=c1c(Br)coc2ccc(F)cc12	85.1
Cc1ccc(NC(=O)CCC(=O)O)cc1	105
CC(N)C(=O)NC(C)C(=O)O (centres undefined)	100
O=c1c(-c2ccccc2)coc2c(CN3CCCCC3)c(O)ccc12	96
CCOC(=O)N/N=C1/C=C2CCC3C(CC[C@@]4(C)C3CC3CCCC[C@]34C(C)=O)[C@@]2(C)CC1 (some centres undefined)	92.4
COc1cc(C(=O)N2CCN(C(=O)c3cccc(Cl)c3)CC2)cc(OC)c1OC	102
Cn1c(=O)c2c(nc(NCC(O)c3ccccc3)n2C)n(C)c1=O (centres undefined)	97.2
CC1(C)OC(c2cccc(NC(=O)c3ccc4c(c3)OCO4)c2)OC1(C)C	91.8
Cc1ccc(-n2c(SCc3cccc(C)c3)nc3c(=O)[nH]cnc32)cc1	120
COc1ccccc1N1CCN(C(=O)CSc2nc3ccccc3c(=O)[nH]2)CC1	100
COc1ccccc1/C=C/C(=O)c1ccc(O)cc1O	92.6
CC1NC(C(=O)O)Cc2c1[nH]c1ccccc21 (centres undefined)	112
CCCc1cc(=O)oc2cc(OC(C(=O)OC)c3ccccc3)ccc12 (centres undefined)	106
Cc1ccc(-n2c(SCc3nc(-c4ccccc4C)oc3C)nc3c(=O)[nH]cnc32)cc1	110
CCOc1ccc(-c2c(C)c3cc(F)ccc3oc2=O)cc1	56.1
COc1cc(C2NC(C(=O)O)CS2)cc(OC)c1O (centres undefined)	98.1
Cc1ccc(/C=C/C(=O)c2ccc3c(c2)OCO3)s1	94.4
CC(C)OC(=O)C1=C(N)Oc2c(oc(CO)cc2=O)C1c1ccc(F)cc1 (centres undefined)	92.6

Another view of some results above:
SMILES,cell viability [%]
COC(=O)c1ccc2c(c1)C(=O)/C(=C\c1cc(OC)c(OC)c(OC)c1)O2,96.4
CC(C)(C)c1ccc(-c2nc(Nc3ccc(C(=O)O)cc3)c3ccccc3n2)cc1,91.5
CCOc1cc(C2C(C(=O)OCCOC)=C(C)NC3=C2C(=O)CC(c2ccccc2)C3)cc(Br)c1O (centres undefined),92.4
Cc1cc(C)c(C(=O)O)c(N)n1,97.4
O=C(c1cccc(S(=O)(=O)N2CCCCCC2)c1)N1c2ccccc2Sc2ccccc21,82.2
COc1ccc2c(c1OC)C(=O)OC2C(C(C)=O)C(C)=O (centres undefined),104
COc1ccc(C(=O)CSc2cccc3cccnc23)cc1OC,104
COc1ccc(C2C3CCCCC3(O)CCN2C(=O)c2cccc(F)c2)c(OC)c1 (centres undefined),91.1
O=c1c(Br)coc2ccc(F)cc12,85.1
Cc1ccc(NC(=O)CCC(=O)O)cc1,105
CC(N)C(=O)NC(C)C(=O)O (centres undefined),100
O=c1c(-c2ccccc2)coc2c(CN3CCCCC3)c(O)ccc12,96
CCOC(=O)N/N=C1/C=C2CCC3C(CC[C@@]4(C)C3CC3CCCC[C@]34C(C)=O)[C@@]2(C)CC1 (some centres undefined),92.4
COc1cc(C(=O)N2CCN(C(=O)c3cccc(Cl)c3)CC2)cc(OC)c1OC,102
Cn1c(=O)c2c(nc(NCC(O)c3ccccc3)n2C)n(C)c1=O (centres undefined),97.2
CC1(C)OC(c2cccc(NC(=O)c3ccc4c(c3)OCO4)c2)OC1(C)C,91.8
Cc1ccc(-n2c(SCc3cccc(C)c3)nc3c(=O)[nH]cnc32)cc1,120
COc1ccccc1N1CCN(C(=O)CSc2nc3ccccc3c(=O)[nH]2)CC1,100
COc1ccccc1/C=C/C(=O)c1ccc(O)cc1O,92.6
CC1NC(C(=O)O)Cc2c1[nH]c1ccccc21 (centres undefined),112

Further results follow.

SMILES	cell viability [%]
COc1ccc(C(=O)N2CCCc3cccc(OC)c32)cc1OC	90.1
CCCCCCCCCCCCCCCC(=O)OC(CC(=O)O)C[N+](C)(C)C (centres undefined)	107
COc1cc(C2=NOC(=O)/C2=C\c2sccc2C)cc(OC)c1OC	98.7
COc1cc(NC(=O)Cn2c(=O)cc(C(=O)N3CCCCC3)c3ccccc32)cc(OC)c1	97.1
CCOc1ccccc1C(=O)NCCc1c(C)[nH]c2ccccc12	105
COc1cc(C2Nc3ccc4ccccc4c3C3=C2C(=O)CC(C)(C)C3)ccc1OCc1ccccc1 (centres undefined)	105
O=C(O)c1ccc2[nH]c3c(c2c1)CCCC3	95.7
COC(=O)C1(C)CCC2(C)CCC3(C)C(=CC(=O)C4C5(C)CCC(O)C(C)(C)C5CCC43C)C2C1 (centres undefined)	90
COc1cc(CCC(=O)Nc2c(C)c(C)c3c(c2C)NC(=O)CO3)cc(OC)c1OC	94.8
COc1ccc(C(=O)NCC(=O)NN)cc1OC	104
COC(=O)C1=C(N)Oc2c(oc(CO)cc2=O)C1c1ccc(Cl)cc1Cl (centres undefined)	101
Cc1sc(N)nc1-c1c[nH]c2ccccc12	99.1
CC(C)(C)c1ccc(C(=O)/C=C/c2ccc(Cl)cc2Cl)cc1	100
O=C(O)CNC(=O)c1ccc(NS(=O)(=O)c2ccc3c(c2)OCCO3)cc1	94.1
Cc1cc(C)c(NC(=O)Cn2c(=O)cc(C(=O)N3CCc4ccccc4C3)c3ccccc32)c(C)c1	100
Cc1ccc2nc(-c3ccc(C)c(NC(=O)c4ccc5c(c4)OCCO5)c3)oc2c1	106
COc1ccc(C2C3CCCCC3(O)CCN2C(=O)/C=C/c2ccc(C(C)C)cc2)c(OC)c1 (centres undefined)	99.4
O=C1C[C@H](n2nc(-c3ccccc3Br)oc2=S)[C@H]2CO[C@@H]1O2	55.5
COc1ccc(C(=O)C2[C@H]3C4COC(O4)C(=O)[C@H]3[C@@H]3c4ccccc4C=CN23)cc1OC (some centres undefined)	102
Cc1cc(C(=O)NCCc2c(C)[nH]c3ccccc23)ccc1[N+](=O)[O-]	94.1
CC(=O)CSc1nc2c(c(=O)[nH]c(=O)n2C)n1Cc1cccc(C)c1	106
Cc1cc(Oc2ccc(C)c(Cl)c2)nc(SCC(=O)c2ccccc2)n1	88.2
CC(=NCCc1c(C)[nH]c2ccccc12)c1c(C)[nH]n(-c2nc3ccccc3s2)c1=O	96.3
COC(=O)c1c(C)n(CCOc2ccc(F)cc2)c2ccc(O)cc12	96.9
COc1ccc(C(=O)Nc2sc3c(c2C(N)=O)CCCC3)cc1OC	95.1
Cc1cc2c(c(O)c1-c1c(C)cc3c(c1O)/C(=C/Nc1cccc4c(N)cccc14)C(=O)C(O)=C3C(C)C)/C(=C/Nc1cccc3c(N)cccc13)C(=O)C(O)=C2C(C)C	70.8

SMILES	cell viability [%]
COc1cc(C(=O)Nc2ccccc2OC(C)C)cc(OC)c1OC	83.4
Nc1c(C(=O)N2CCC[C@H]2C(=O)O)sc2nc(-c3ccccc3)cc(-c3ccccc3)c12	95.6
N#CC1=C(N)OC2=C(COc3ccccc32)C1c1cccc(Cl)c1 (centres undefined)	106
CC(C)CC(Nc1c(C(=O)Nc2ccc(Cl)cc2)cc([N+](=O)[O-])cc1[N+](=O)[O-])C(=O)O (centres undefined)	95.8
O=C1C[C@H](n2nnn(-c3cccc(O)c3)c2=S)[C@H]2CO[C@@H]1O2	88.1
CCCCOc1ccc(C(=O)/C=C/c2ccc(Cl)cc2Cl)cc1OCCCC	101
COc1ccc(C2c3[nH]c4ccccc4c3CCN2C(=O)/C=C/c2ccc(OC)c(OC)c2)cc1 (centres undefined)	81.9
COC(=O)c1ccc(NC(=O)c2cc(OC)c(OC)c(OC)c2)cc1	23.1
O=C(/C=C/c1ccc2c(c1)OCO2)NCCSCc1cccc(Cl)c1	114
COc1ccc(-c2cc(-c3ccc(C)cc3)c(C#N)c(=O)[nH]2)cc1	101
C=CCN(C(=O)CSc1nc2ccccc2c(=O)[nH]1)c1ccccc1	88.4
O=c1ccc2ccccc2[nH]1	95.3
CCc1ccc2oc(=O)cc(CN3CCN(c4cc(C)ccc4C)CC3)c2c1	124
CCCCc1ccc(NC(=O)c2cc(OC)c(OC)c(OC)c2)cc1	49.6
CCc1ccc2oc(=O)cc(CN3CCN(CC(=O)Nc4cccc(SC)c4)CC3)c2c1	97.6
COc1cc(OC)c(C2NC(C(=O)O)Cc3c2[nH]c2ccccc32)cc1OC (centres undefined)	107
O=c1cc(C(Cl)(Cl)Cl)oc2ccccc12	4.98
O=C(Nc1ccc(Cl)cc1Cl)c1c(O)c2ccccc2[nH]c1=O	101
COc1cc(C2C(C(=O)OC3CCCC3)=C(C)NC3=C2C(=O)CC(C)(C)C3)cc(Br)c1O (centres undefined)	106
CCCCCOC(=O)C1=C(C)NC2=C(C(=O)CCC2)C1c1cc(Cl)c(O)c(OC)c1 (centres undefined)	100
CCN(CC)C(=O)c1ccc(OCc2csc(C)n2)c(OC)c1	91.6
CC(=O)Nc1ccc(NC(C)=O)c(NC2OC(CO)C(OC3OC(CO)C(O)C(O)C3O)C(O)C2O)c1 (centres undefined)	103
CCn1c(SCc2nc(-c3ccccc3)oc2C)nc2c(=O)[nH]cnc21	96.8
COc1ccc(-c2c(C)c3cc(Cl)c(O)cc3oc2=O)cc1OC	85.4
CC(=O)NCCc1c[nH]c2ccc(O)cc12	103
C=C1C(NC(=O)c2cc(OCC)c(OCC)c(OCC)c2)=C(C)N(C)N1c1ccccc1	99.9

— the supplement of paper PMC11150407
